The source of these data is patent US7833977B2, “Use of L-Carnitine as stabilizing agent of proteins” (Sigma-Tau Industrie Farmaceutiche Riunite S.p.A., priority 2000, dated 2010).

Values joined by “and” are separate entries in the source; they are usually repeats but may differ in a detail not shown here. Identical values can stand only once.

This data set has as its system rat lenses. Put plainly: Rat lens organ culture exposed to H2O2 with or without L-carnitine. It counts as cell-based, Sprague-Dawley rats. Conditions: 500 μM H2O2 ± 300 μM L-carnitine; for Lens weight: 24 h incubation; for Water insoluble protein: % of total proteins; for Water insoluble protein / Acetyl carnitine / Free carnitine / Total carnitine / Glutathione: 24 h; for Acetyl carnitine / Free carnitine / Total carnitine / Glutathione: lens homogenate. How it is done:
Four-month-old Sprague-Dawley rats were anesthesized with 5 mg/kg xylazine and 65 mg/kg ketamine, and decapitated. Immediately after, eyes were enucleated, extracted and placed in 2 ml of modified TC-199 medium. Lens integrity was assessed by measuring protein leached into the medium after 30-60 min of culture; damaged lenses were discarded. One lens of each pair was placed in culture medium with no H2O2 and used as a control. […] The controlateral lens of each pair was placed in medium and, after equilibration under 5% CO2 at 37° C., was exposed to 500 μM H2O2 in the absence or presence of 300 μM L-carnitine. After 24 h of incubation, morphological characteristics and changes were recorded, and the lenses were photographed. The incubated lenses were rinsed with saline solution, blotted on filter paper, weighed, and then immediately processed for biochemical analysis. To determine lactate dehydrogenase (LDH) leakage, lenses were incubated individually in each different medium, and the medium was harvested daily and saved for LDH analysis.
Decapsulated lenses were homogenized with disposable pestles and then sonicated in extract buffer (20 mM HEPES, 0.2 mM EDTA, 0.5 mM dithiothreitol, 450 mM NaCl, 25% glycerol, […] leupeptin, 0.5 μg/ml protinin, 0.5 mM phenylmethanesulfonyl fluoride) on ice. Aliquots of the homogenate from each of the incubated lenses were removed for GSH and L-carnitine analysis. The remainder was centrifuged for 25 min at 20,000×g to separate the supernatant from the pellet. The pellet was washed with 1.0 ml buffer and dried under nitrogen. This fraction was designated “water-insoluble fraction”. The supernatant fraction was dialyzed twice against 3 ml of 0.025 mol/l phosphate buffer, pH 7.4 for 48 h and lyophilized. This fraction was designated “water-soluble” fraction. The water-soluble and water-insoluble fractions were delipidated with 3.0 ml chloroform:methanol (2:1) for 16 h under shaking followed by centrifugation at 2,000 g for 5 min.
The water-insoluble proteins were suspended in 0.2 M N-ethylmorpholine acetate (pH 8.1). An aliquot (10%) was used to quantitate the amount of total protein. Samples were digested by the sequential addition of proteolytic enzymes (collagenase, pronase, aminopeptidase and carboxypeptidase A, carboxypeptidase B and carboxypeptidase y), directly to the reaction mixture at 37° C. in the presence of 0.02% sodium azide. After enzymatic digestion, the free N-(γ-glutamyl)lysine isopeptide cross-link was resolved by HPLC and quantitated by amino acid analysis (Hohl, D., et al (1991), J Biol Chem. 266, 6626-6636). In a related set of experiments, the isopeptide content of lenses was determined without prior extraction.
After a 24-h incubation with or without H2O2 in the presence or absence of L-carnitine, lenses were submitted to standard procedures for histologic analysis. For optical microscopy, lenses were removed from culture medium, immersed in fixative (neutral buffered formalin), dehydrated in ethanol, cleared in xylene, and embedded in paraffin wax for sectioning. Five micrometer sections were prepared and stained with hematoxylin and eosin. For scansion electron microscopy the lenses were fixed by immersion, for at least 24 h at room temperature, in a solution of 2.5% glutaraldehyde and 6% sucrose, buffered to pH 7.2 with 50 mM sodium cacodylate. Samples were dehydrated through a graded series of ethanol, critical point-dried using CO2, mounted on aluminium stubs, sputter-coated with gold, and examined with a Leica Stereoscan 440 microscope at a 3-7 kV acceleration voltage.
For transmission electron microscopy, the lenses were fixed as described above for the scansion electron microscopy procedure, postfixed in OsO4 buffered with 150 mM sodium-potassium phosphate (pH 7.4), embedded, sectioned, and stained for electron microscopy. They were examined at a JEOL 100B electron microscope.

On to `OO` [H2O2, reference compound], for which the Lens weight was 47 ± 0.2 mg; the Water insoluble protein is 41% and 41 ± 1.9 %; the Acetyl carnitine was 6 ± 1 nmoles/g w-w; the Free carnitine amounted to 27 ± 2 nmoles/g w-w. In addition, the Total carnitine was determined as 36 ± 3 nmoles/g w-w.
For the compound `C[N+](C)(C)C[C@H](O)CC(=O)[O-]` [L-carnitine], the Lens weight result is listed as “no differences in weight”, the Water insoluble protein entry is “the same as those observed in control lenses”, the Acetyl carnitine was 37 ± 2 nmoles/g w-w and the Free carnitine is on record as 151 ± 2 nmoles/g w-w. Also, the Glutathione entry is given as “did not prevent the loss of GSH” and the Total carnitine entry is on record as “maintained the carnitine concentration almost at the level found in control lenses”. In addition, for the setting “listed as H2O2 + L-CAR”, the Lens weight is recorded as 27 ± 0.9 mg, the Water insoluble protein is 5 ± 2.0%, the Glutathione turned out to be 2.71 ± 0.73 μmoles/g w-w and the Total carnitine is listed as 189 ± 2 nmoles/g w-w.
